In article doi:10.1101/2025.08.30.673307 (bioRxiv, 2025):
No constants are given. Whether binding was seen depends on the method and setting. Binding seen in cells or lysates may run through a third protein. A yes stands for co-enrichment or nearness to the bait. Other partners may have been found. Tags and fused reporters may be left off the sequences shown.

The chains behind the UniProt entries cited, without tags or fusion partners. Where a name states a change or a piece, a line headed by the entry shows the natural chain unless it says otherwise.
UniProt P51149: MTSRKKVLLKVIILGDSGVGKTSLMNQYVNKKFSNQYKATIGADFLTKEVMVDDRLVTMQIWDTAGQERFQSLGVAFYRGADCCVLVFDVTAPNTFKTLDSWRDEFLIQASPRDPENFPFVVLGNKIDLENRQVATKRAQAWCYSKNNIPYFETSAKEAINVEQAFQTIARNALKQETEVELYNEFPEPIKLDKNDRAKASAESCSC
UniProt P05556: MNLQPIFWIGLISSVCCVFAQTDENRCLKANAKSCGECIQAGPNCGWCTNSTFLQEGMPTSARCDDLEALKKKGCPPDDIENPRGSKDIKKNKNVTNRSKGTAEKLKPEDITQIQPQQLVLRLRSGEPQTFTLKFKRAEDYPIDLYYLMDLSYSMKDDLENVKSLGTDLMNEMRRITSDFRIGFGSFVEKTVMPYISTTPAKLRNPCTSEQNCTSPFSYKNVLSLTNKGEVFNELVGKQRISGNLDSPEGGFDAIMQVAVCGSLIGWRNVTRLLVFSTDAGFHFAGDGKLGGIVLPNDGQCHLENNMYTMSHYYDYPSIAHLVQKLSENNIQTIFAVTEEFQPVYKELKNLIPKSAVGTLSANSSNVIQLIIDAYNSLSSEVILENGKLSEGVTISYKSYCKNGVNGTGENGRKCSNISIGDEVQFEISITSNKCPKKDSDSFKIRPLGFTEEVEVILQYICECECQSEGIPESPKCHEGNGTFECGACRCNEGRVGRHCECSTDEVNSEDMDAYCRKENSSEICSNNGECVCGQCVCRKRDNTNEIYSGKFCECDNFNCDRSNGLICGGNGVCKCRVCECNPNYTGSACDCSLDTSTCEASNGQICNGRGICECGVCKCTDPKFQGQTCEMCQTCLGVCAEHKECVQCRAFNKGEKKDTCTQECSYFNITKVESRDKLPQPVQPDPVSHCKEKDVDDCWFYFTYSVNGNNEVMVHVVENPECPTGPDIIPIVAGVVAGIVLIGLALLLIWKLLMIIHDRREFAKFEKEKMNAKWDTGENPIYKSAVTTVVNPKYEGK

B1: integrin ITGA6 (receptor, UniProt P23229 24-1130)
chain: FNLDTREDNVIRKYGDPGSLFGFSLAMHWQLQPEDKRLLLVGAPRAEALPLQRANRTGGLYSCDITARGPCTRIEFDNDADPTSESKEDQWMGVTVQSQGPGGKVVTCAHRYEKRQHVNTKQESRDIFGRCYVLSQNLRIEDDMDGGDWSFCDGRLRGHEKFGSCQQGVAATFTKDFHYIVFGAPGTYNWKGIVRVEQKNNTFFDMNIFEDGPYEVGGETEHDESLVPVPANSYLGLLFLTSVSYTDPDQFVYKTRPPREQPDTFPDVMMNSYLGFSLDSGKGIVSKDEITFVSGAPRANHSGAVVLLKRDMKSAHLLPEHIFDGEGLASSFGYDVAVVDLNKDGWQDIVIGAPQYFDRDGEVGGAVYVYMNQQGRWNNVKPIRLNGTKDSMFGIAVKNIGDINQDGYPDIAVGAPYDDLGKVFIYHGSANGINTKPTQVLKGISPYFGYSIAGNMDLDRNSYPDVAVGSLSDSVTIFRSRPVINIQKTITVTPNRIDLRQKTACGAPSGICLQVKSCFEYTANPAGYNPSISIVGTLEAEKERRKSGLSSRVQFRNQGSEPKYTQELTLKRQKQKVCMEETLWLQDNIRDKLRPIPITASVEIQEPSSRRRVNSLPEVLPILNSDEPKTAHIDVHFLKEGCGDDNVCNSNLKLEYKFCTREGNQDKFSYLPIQKGVPELVLKDQKDIALEITVTNSPSNPRNPTKDGDDAHEAKLIATFPDTLTYSAYRELRAFPEKQLSCVANQNGSQADCELGNPFKRNSNVTFYLVLSTTEVTFDTPDLDINLKLETTSNQDNLAPITAKAKVVIELLLSVSGVAKPSQVYFGGTVVGEQAMKSEDEVGSLIEYEFRVINLGKPLTNLGTATLNIQWPKEISNGKWLLYLVKVESKGLEKVTCEPQKEINSLNLTESHNSRKKREITEKQIDDNRKFSLFAERKYQTLNCSVNVNCVNIRCPLRGLDSKASLILRSRLWNSTFLEEYSKLNYLDILMRAFIDVTAAAENIRLPNAGTQVRVTVFPSKTVAQYSGVPWWIILVAILAGILMLALLVFILWKCGFFKRSRYDDSVPRYHAVRIRKEEREIKDEKYIDNLEKKQWITKWNENESYS

What was measured:
[1] = target: T1, APEX2-stomatin-V5 (human) (UniProt P27105); assay: proximity labelling
T1 sequence: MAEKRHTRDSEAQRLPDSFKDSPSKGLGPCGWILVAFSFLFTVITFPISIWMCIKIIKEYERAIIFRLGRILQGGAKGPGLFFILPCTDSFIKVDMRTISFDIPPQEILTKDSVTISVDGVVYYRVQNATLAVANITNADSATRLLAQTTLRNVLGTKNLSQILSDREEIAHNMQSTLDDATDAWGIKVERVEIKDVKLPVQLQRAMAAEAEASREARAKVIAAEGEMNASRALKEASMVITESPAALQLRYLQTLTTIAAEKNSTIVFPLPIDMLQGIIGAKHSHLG

[2] = target: T2, GFP-STOM-WT (stable HEK293T line for co-IP MS) (human) (UniProt P27105); assay: affinity purification with mass spectrometry
T2 sequence: T1 sequence

Molecule | binding [1] | binding [2]
Rab7a (from UniProt P51149 1-207) | binds | binds
integrin ITGB1 (from UniProt P05556 21-798) (receptor) | binds | binds
B1 | binds | binds
